{"sequences": {"note": "By UniProt entry, the sequences of proteins in these tests, tags left out.", "UniProt P21796": "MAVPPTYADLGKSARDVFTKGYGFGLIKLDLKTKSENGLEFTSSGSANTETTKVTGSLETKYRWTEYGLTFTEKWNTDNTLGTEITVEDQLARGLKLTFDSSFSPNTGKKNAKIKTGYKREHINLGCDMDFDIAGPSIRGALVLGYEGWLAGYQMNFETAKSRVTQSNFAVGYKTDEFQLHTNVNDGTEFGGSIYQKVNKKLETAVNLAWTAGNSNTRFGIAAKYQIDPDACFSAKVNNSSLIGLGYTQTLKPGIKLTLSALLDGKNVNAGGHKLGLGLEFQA"}, "source": "paper PMC12669790", "target": "T1, ETS proto-oncogene 1 (ETS1) (human (endogenous in HUVEC)) (UniProt P14921)", "T1 sequence": "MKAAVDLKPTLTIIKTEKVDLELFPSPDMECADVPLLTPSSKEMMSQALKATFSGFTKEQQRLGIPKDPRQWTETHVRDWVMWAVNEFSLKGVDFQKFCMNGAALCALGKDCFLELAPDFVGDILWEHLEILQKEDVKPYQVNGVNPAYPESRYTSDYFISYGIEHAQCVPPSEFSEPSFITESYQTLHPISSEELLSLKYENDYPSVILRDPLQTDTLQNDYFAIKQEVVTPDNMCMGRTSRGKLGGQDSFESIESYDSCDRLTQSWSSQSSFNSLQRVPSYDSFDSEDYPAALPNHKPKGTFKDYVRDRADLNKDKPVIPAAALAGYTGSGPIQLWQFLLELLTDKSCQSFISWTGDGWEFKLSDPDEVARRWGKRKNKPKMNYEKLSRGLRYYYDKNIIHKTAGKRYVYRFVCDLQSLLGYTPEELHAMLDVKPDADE", "test": "co-IP; HUVEC lysate (Co-IP kit), target antibody overnight at 4 °C, beads overnight at 4 °C, western blot; cells with LPS, with or without the FASN inhibitor C75", "note": "These are yes or no findings as the source states them, for the method shown. In cells and extracts the contact can be indirect. Some results given as binding are weak or reduced against the parent protein; the word gives no strength."}
{"substance": "voltage-dependent anion channel 1 (VDAC1) (from UniProt P21796 1-283)", "values": [{"measurement": "binding", "value": "binds"}]}
